The source of these data is paper PMC5458252, “Niclosamide is a potential therapeutic for familial adenomatosis polyposis by disrupting Axin-GSK3 interaction” (Oncotarget, 2017).

Amino acid sequences for entries named in this document (tags omitted).
UniProt Q9Y2T1: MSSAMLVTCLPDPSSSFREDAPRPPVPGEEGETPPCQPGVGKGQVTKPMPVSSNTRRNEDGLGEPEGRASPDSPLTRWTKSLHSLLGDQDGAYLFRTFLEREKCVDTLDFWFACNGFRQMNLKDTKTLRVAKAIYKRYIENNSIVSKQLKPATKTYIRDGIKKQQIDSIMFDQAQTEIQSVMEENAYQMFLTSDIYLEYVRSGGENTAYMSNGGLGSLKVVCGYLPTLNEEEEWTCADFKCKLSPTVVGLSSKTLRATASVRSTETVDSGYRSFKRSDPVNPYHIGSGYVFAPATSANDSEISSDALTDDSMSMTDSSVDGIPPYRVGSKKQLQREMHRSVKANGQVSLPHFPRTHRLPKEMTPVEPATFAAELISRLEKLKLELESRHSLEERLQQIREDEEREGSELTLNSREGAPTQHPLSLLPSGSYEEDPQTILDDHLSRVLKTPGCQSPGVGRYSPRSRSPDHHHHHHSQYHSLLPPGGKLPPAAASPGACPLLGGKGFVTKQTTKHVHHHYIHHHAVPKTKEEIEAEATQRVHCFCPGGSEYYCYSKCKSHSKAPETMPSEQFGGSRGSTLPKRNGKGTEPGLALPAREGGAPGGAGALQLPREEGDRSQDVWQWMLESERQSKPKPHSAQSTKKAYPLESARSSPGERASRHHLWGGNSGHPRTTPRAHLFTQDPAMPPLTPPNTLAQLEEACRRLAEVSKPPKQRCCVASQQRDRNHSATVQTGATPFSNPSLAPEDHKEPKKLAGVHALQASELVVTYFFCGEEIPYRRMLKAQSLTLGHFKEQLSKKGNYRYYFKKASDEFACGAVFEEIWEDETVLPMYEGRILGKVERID
UniProt P49841: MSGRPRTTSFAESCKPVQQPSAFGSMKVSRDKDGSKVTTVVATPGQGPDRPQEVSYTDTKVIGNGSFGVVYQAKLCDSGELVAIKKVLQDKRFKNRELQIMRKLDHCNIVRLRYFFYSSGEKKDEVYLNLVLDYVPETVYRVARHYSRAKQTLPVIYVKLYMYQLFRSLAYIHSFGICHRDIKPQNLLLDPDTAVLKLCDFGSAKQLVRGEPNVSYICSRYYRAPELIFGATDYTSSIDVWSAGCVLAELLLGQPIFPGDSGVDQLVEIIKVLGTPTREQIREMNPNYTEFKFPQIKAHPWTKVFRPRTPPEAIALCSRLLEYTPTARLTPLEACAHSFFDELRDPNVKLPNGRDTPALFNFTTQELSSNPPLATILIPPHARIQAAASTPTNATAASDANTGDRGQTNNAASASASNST

Results are given in words; binding and its absence hold for the method and conditions named. Binding seen in cells or lysates may run through a third protein. Some entries that bind do so weakly or less than the wild type.

Experiment [1] deals with His-tagged Axin2 (full-length), transfected in 293 cells (UniProt Q9Y2T1). The experiment in a line: pull-down; 293 cells transfected with His-tagged Axin2 and treated with increasing doses of niclosamide for 8 h; Ni-NTA bead precipitation of the lysate (called immunoprecipitation), immunoblot for GSK3. (Immunoblotting shows a protein as a band on a membrane.)
For experiment [2], the target named is His-tagged Axin2, doxycycline-inducible, stably transfected in MCF-7 cells (UniProt Q9Y2T1). The experiment in a line: pull-down; whole cell Triton X-100 lysates of MCF-7 cells with inducible His-tagged Axin2 incubated with Ni-NTA beads with different doses of niclosamide; immunoblot for GSK3.

Take “GSK3 (endogenous, detected by immunoblot) (from UniProt P49841 1-420)”: the binding result in experiment [1] and in experiment [2] was “binds” each time.
